Measurements from the supplement of paper PMC8288183.
Some of the results follow. Most values come without repeats; read them as rough.

Molecular target: T1, NSUN6 (UniProt Q8TEA1)
T1 sequence: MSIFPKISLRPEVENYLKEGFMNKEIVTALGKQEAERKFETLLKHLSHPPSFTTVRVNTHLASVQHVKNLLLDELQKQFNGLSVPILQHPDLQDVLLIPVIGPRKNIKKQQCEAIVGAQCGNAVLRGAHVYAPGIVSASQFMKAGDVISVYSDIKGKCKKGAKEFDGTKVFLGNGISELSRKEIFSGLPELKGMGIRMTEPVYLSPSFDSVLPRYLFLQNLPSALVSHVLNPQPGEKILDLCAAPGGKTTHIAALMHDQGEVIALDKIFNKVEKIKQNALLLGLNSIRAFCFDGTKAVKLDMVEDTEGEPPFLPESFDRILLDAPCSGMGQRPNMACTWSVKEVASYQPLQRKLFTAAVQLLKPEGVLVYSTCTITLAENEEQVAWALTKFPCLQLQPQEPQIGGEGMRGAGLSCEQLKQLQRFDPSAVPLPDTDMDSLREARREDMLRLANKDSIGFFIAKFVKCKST
Test: m5C methylation level at the target C (C/(C+U) bisulfite reads) (fraction); higher = more methylation by NSUN6; extreme values may be limits of the assay
Conditions: HEK293T (wild-type)

[1] = parent substrate: substrate #1 (main figure)

Row | Sequence | m5C methylation level at the target C [1] | m5C methylation level at the target C (parent substrate: substrate #2) | m5C methylation level at the target C (parent substrate: substrate #3) | m5C methylation level at the target C (parent substrate: substrate #4)
1 | CCUCAC | 0.00591 | 0.0138 | 0 | 0.00325
2 | UCCGCA | 0.00339 | 0 | 0 | 0.00137
3 | ACCGCU | 0 | 0 | 0 | 0.00282
4 | UCUUUG | 0.00293 | 0 | 0.000509 | 0.000826
5 | UCAACA | 0.00559 | 0.00932 | 0 | 0.00187
6 | ACCACC | 0.00225 | 0 | 0.0018 | 0
7 | UCGCUC | 0.00299 | 0.000853 | 0 | 0
8 | GCCGGA | 0.00167 | 0.00303 | 0.000366 | 0.00744
9 | GCCAGG | 0.0098 | 0.00769 | 0.0113 | 0.00303
10 | CCAAAC | 0 | 0 | 0.00323 | 0.000671
11 | CCUCUC | 0 | 0 | 0.00105 | 0
12 | ACGAUU | 0 | 0.000887 | 0.00172 | 0.000448
13 | ACGACG | 0 | 0.0208 | 0.00115 | 0.000549
14 | GCUAUG | 0.000614 | 0.00226 | 0.00163 | 0.00271
15 | GCUUAU | 0 | 0.0101 | 0.0011 | 0.0026
16 | ACUUGA | 0.00125 | 0.00408 | 0 | 0
17 | GCGUCG | 0.00386 | 0 | 0.00278 | 0.00268
18 | ACCAUU | 0 | 0.0128 | 0.00149 | 0
19 | GCCUGA | 0.00183 | 0 | 0.000415 | 0.00129
20 | ACUCUU | 0 | 0.00501 | 0.00231 | 0.00173
21 | CCCUAC | 0.00105 | 0.00168 | 0 | 0.00127

Only m5C methylation level at the target C (parent substrate: substrate #4) and m5C methylation level at the target C (parent substrate: substrate #2), for some of the entries so far:
Row,Sequence,m5C methylation level at the target C (parent substrate: substrate #4),m5C methylation level at the target C (parent substrate: substrate #2)
12,ACGAUU,0.000448,0.000887
13,ACGACG,0.000549,0.0208
14,GCUAUG,0.00271,0.00226

Later entries:

Row | Sequence | m5C methylation level at the target C [1] | m5C methylation level at the target C (parent substrate: substrate #2) | m5C methylation level at the target C (parent substrate: substrate #3) | m5C methylation level at the target C (parent substrate: substrate #4)
22 | UCCCUG | 0.00161 | 0.002 | 0.0011 | 0
23 | CCGUAA | 0 | 0.000696 | 0.00128 | 0
24 | GCAAGU | 0 | 0 | 0.000495 | 0.00214
25 | CCUUUA | 0 | 0.00275 | 0.00112 | 0.00419
26 | GCUUCG | 0.00539 | 0 | 0.000508 | 0
27 | ACACUA | 0.00296 | 0 | 0.00688 | 0.00164
28 | UCGCAC | 0 | 0.00218 | 0 | 0.000402
29 | GCAGAA | 0.000898 | 0.0155 | 0.00727 | 0
30 | CCAUUC | 0 | 0 | 0.00063 | 0.00929
31 | UCAGGC | 0 | 0.00124 | 0.00241 | 0
32 | UCUGGU | 0 | 0.00801 | 0.00304 | 0.00174
33 | UCCACC | 0.00175 | 0 | 0.00205 | 0
34 | CCUUAC | 0.00154 | 0 | 0.000986 | 0
35 | GCGGUG | 0.00128 | 0.00625 | 0.00122 | 0.00158
36 | UCGUCU | 0.00536 | 0 | 0 | 0
37 | CCUCGU | 0.0009 | 0 | 0 | 0.00186
38 | GCACAC | 0 | 0.00218 | 0.000485 | 0.00341
39 | ACAUGU | 0 | 0 | 0 | 0
40 | CCCGAU | 0 | 0 | 0 | 0
41 | ACAAAA | 0 | 0 | 0.000703 | 0
42 | CCUAAC | 0.00253 | 0 | 0 | 0
